From PubChem BioAssay AID1671190 (National Center for Advancing Translational Sciences (NCATS), 2021)
Values joined by “and” are separate entries in the source; they are usually repeats but may differ in a detail not shown here. Equal values may be shown once. Hit rate of the full screen: of about 580,000 compounds, about 6,100 (1.1%) were called active. Inconclusive results, whose numbers are uncertain, are shown with a selection of clear calls. Calls follow the shape of the dose curve; as a rule, active = well fitted inhibition curve with a large enough effect; inconclusive = small, poorly fitted or top-dose-only effect, or another doubt; inactive = no such curve, though single readings can be large or run the other way. Potencies of inconclusive entries are doubtful fits and often do not repeat.

Amino acid sequences for entries named in this document (tags omitted). A change or cut given only in a name is not applied to a line headed by its entry.
UniProt P18054: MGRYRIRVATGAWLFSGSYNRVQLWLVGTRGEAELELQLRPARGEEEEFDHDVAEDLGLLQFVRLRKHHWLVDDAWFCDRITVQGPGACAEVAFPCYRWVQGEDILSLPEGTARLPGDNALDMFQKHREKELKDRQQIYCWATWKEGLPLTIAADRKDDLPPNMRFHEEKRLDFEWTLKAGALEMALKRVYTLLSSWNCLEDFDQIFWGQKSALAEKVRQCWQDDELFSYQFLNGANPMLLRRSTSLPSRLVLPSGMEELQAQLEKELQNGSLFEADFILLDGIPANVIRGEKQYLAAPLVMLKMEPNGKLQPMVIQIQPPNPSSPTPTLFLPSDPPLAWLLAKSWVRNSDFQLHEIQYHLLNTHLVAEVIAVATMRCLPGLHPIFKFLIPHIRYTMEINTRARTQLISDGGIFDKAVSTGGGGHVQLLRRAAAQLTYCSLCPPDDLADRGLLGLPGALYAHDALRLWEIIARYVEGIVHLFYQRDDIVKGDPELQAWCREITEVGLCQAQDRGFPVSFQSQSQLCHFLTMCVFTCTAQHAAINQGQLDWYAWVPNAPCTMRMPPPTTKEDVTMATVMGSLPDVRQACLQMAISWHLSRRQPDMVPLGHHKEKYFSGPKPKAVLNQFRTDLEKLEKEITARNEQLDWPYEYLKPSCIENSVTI

molecular target: Polyunsaturated fatty acid lipoxygenase ALOX12 (Homo sapiens) (UniProt P18054); assay: Primary qHTS assay for inhibitors of human arachidonate 12S-lipoxygenase (ALOX12): Round 2; conditions: purified 12hLO, xylenol orange hydroperoxide absorbance; activity change, negative = inhibition: at 108 µM (top of the series) unless noted
In short: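 Hydroperoxide product was detected by ferrous iron/xylenol orange as the 573 to 405 nm absorbance ratio. Arachidonic acid at 40 uM (final) was turned over for 30 min at room temperature by 150 nM human 12hLO, pH 7.0 Hepes buffer, after 15 min compound preincubation.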
% is scaled to controls: 0 for no effect and ±100 for the full control effect; potency is read from the fitted curve at half-maximal effect.

Compound	Potency	activity change, negative = inhibition
COc1cc(/C=C/C(=O)OCC(=O)Nc2ccc3[nH]c(=O)[nH]c3c2)ccc1OC(F)F	inconclusive: 100 µM [inhibitor, single point]	–
O=c1c2ccc(F)cc2sn1-c1ccccc1	active: 0.355 µM	–
Fc1cc(F)c(F)c(SCCc2ccncc2)c1F	inconclusive: 39.8 µM [inhibitor, partial curve, poor fit]	–
COc1ccc(C(=O)N[C@@H]2CCC[C@@H]2C(=O)NCC(C)C)cc1	inactive	–
COCCNC(=O)c1ccc2c(c1)C1(CCN(C)C1)CN2Cc1csc(C)n1 (centres undefined)	inconclusive: 50.1 µM [inhibitor, partial curve, poor fit]	–
COc1cccc(Cn2c(=O)c(-c3ccc(Cl)cc3)nc3cnc(N4CCNCC4)nc32)c1	inactive	–
C[C@@H]1CN(C(=O)c2cnc3c(O)cccn3c2=O)CC[C@@]1(O)C1CCC1	inactive	–
N#CCCN(C(=O)Cn1nc(C(=O)O)c2ccccc2c1=O)c1ccccc1F	inconclusive: 35.5 µM [inhibitor, partial curve]	–
CC(C)CCNC(N)=S	inconclusive: 50.1 µM [inhibitor, partial curve, poor fit]	–
CCOC(=O)C(=NC1CCS(=O)(=O)C1)NNc1ccc(Br)cc1 (centres undefined)	active: 15.8 µM	–
Cc1ccc2nc(N3CC(C)OC(C)C3)nc(-c3ccccc3)c2c1 (centres undefined)	inactive	–
CC(=O)O[C@]1(C(C)=O)CC[C@@H]2[C@@H]3C[C@H](C)C4=CC(=O)CC[C@]4(C)[C@H]3CC[C@@]21C	inconclusive: 8.63 µM [inhibitor, partial curve, poor fit]	–
C=CCN=C1NN=C(c2cc(C)n(CC=C)c2C)CS1	inconclusive: 50.1 µM [inhibitor, partial curve, poor fit]	–
CCc1nc2cc(N3CCC(C(=O)NCc4cccnc4)CC3)cnc2nc1CC	inconclusive: 3.55 µM [inhibitor, full curve]	–
Clc1ccc(-n2nnnc2Sc2ncnc3sccc23)cc1	inactive	–
Cc1c(C)[n+](=O)c2c(n1[O-])C(Br)CCC2Br (centres undefined)	inconclusive: 39.8 µM [inhibitor, single point]	–
CC(=O)c1c(N2CCN(C)CC2)[nH]c(-c2ccccc2)nc1=S	inconclusive: 44.7 µM [inhibitor, single point]	–
COc1c(C=O)c(O)cc2c1C(=O)c1ccccc1C2=O	inactive and inconclusive: 50.1 µM [inhibitor, full curve, poor fit]	–
CCN(CC)C(=O)COc1cc(O)c2c(=O)cc(-c3ccccc3)oc2c1	inconclusive: 4.47 µM [inhibitor, full curve, poor fit]	–
Cc1cc(C)c2[nH]c(C)c(CN3CCC(C)CC3)c(=O)c2c1	inconclusive: 1.41 µM [inhibitor, full curve, poor fit]	–
CC(=O)NC1(C)CCN(Cc2ccc(-c3ccc4ccccc4c3)cc2)C1 (centres undefined)	inconclusive: 20 µM [inhibitor, full curve]	–
C=CCOc1cccc2[nH]c(C(=O)O)cc12	inconclusive: 39.8 µM [inhibitor, partial curve, poor fit]	–
CNC(=O)c1ccc(NC(=O)CSCc2csc(-c3ccc(F)cc3)n2)cc1	inactive	–

Compound	Potency	activity change, negative = inhibition
Cn1cccc1C(=O)NC(=O)CSc1cccc[n+]1[O-]	inactive	–
Cc1nc2c(cc1C(=O)N/N=C/c1ccc(O)c(O)c1)c(=O)n(C)c(=O)n2C	inactive	–
Cc1cccc(C(=O)Nc2ccc3oc(-c4ccc(F)cc4)nc3c2)c1	inactive	–
Cc1cn([C@H]2C[C@H](O)[C@@H](/C=C/C(=O)NCCc3ccc4c(c3)OCO4)O2)c(=O)[nH]c1=O	inconclusive: 31.6 µM [inhibitor, single point]	–
CC(=O)Nc1ccc(NC(=O)COc2ccc([N+](=O)[O-])cc2)cc1	inactive	–
Cc1cccnc1NC(=S)Nc1ccc(Cl)c(Cl)c1	active: 8.91 µM	–
CN(C(=O)c1ccc(NC(=O)Cc2ccc(NC(=O)C3CCCN(C(=O)C4CC4)C3)cc2)cc1)C1CCCC1 (centres undefined)	inconclusive: 28.2 µM [inhibitor, single point]	–
CCCCCCCCCCOC(=O)Cn1c(COc2ccc(Cl)cc2)[n+](C)c2ccccc21	inconclusive: 50.1 µM [inhibitor, partial curve, poor fit]	–
C1=CCOCc2cc(ccc2OCCN2CCCC2)Nc2nccc(n2)-c2cccc(c2)OCC1	inconclusive: 12.2 µM [inhibitor, partial curve, poor fit]	–
O=C(CCNC(=O)c1ccc(Br)o1)NCc1ccc(Cl)cc1	inconclusive: 112 µM [inhibitor, single point]	–
CCOc1ccc(NC(=O)Cn2nnc(-c3ccccc3F)n2)cc1	inactive	–
COCCC(=O)N1C[C@@H]2CCCN3CCC[C@@H]([C@H]23)[C@H]1CCCC(=O)NCC1CC1	inactive	–
CS(=O)(=O)c1cccc(C(=O)Nc2ccc(N3CCOCC3)cc2)c1	inconclusive: 89.1 µM [inhibitor, single point]	–
Nn1cnnc1N/N=C\c1ccc(-c2ccccc2[N+](=O)[O-])o1	inconclusive: 7.94 µM [inhibitor, full curve, poor fit]	–
COc1ccc(OC)c(CCNC(=O)C(C)n2nc(C)c3c(C)n(-c4ccccc4)nc3c2=O)c1 (centres undefined)	inactive	–
CCC(C)NC(=O)c1ccc(Oc2nccnc2Sc2ccccc2)cc1 (centres undefined)	inconclusive: 89.1 µM [inhibitor, single point]	–
COc1ccc(OC(=O)c2ccc(C)c(I)c2)cc1	inconclusive: 0.794 µM [inhibitor, full curve]	–
NC(=S)NN=C1c2ccccc2-c2ccccc21	active: 35.5 µM	–
COc1cccc(OC)c1OCCCN1CCOCC1	inconclusive: 0.501 µM [inhibitor, full curve, poor fit]	–
CCCCCCCc1nc2nc(C)c(Br)c(=O)n2[nH]1	inactive	–
Cc1ccc(Cn2cc(CN3CC(N4CCN(C5CCN(C)CC5)CC4)CS3(=O)=O)nn2)cc1 (centres undefined)	inconclusive: 12.6 µM [inhibitor, full curve]	–
CCOc1ccccc1CN1CCC(O)CC1	inconclusive: 1 µM [inhibitor, full curve, poor fit]	–
CCOc1cc(C(c2c(O)nc(SC)[nH]c2=O)c2c(O)nc(SC)[nH]c2=O)ccc1O	inactive	–

Compound	Potency	activity change, negative = inhibition
CSc1nc2ccccc2cc1/C=C(\C#N)c1cccc(Cl)c1	inconclusive: 100 µM [inhibitor, partial curve, poor fit]	–
N#Cc1cccc(OCCCN2CCC(C(O)(c3ccccc3)c3ccccc3)CC2)c1	inconclusive: 56.2 µM [inhibitor, partial curve, poor fit]	–
COc1ccc(CN2C[C@H](O)C[C@H]2c2nc(-c3cccc(C)c3)no2)c2ccccc12	inconclusive: 25.1 µM [inhibitor, full curve, poor fit]	–
CC(C)c1cccc(OCCn2c(-c3ccc(Cl)cc3)nc3ccccc3c2=O)c1	inactive	–
Cc1ccc2cc(C#N)c(NCc3ccco3)nc2c1	inconclusive: 100 µM [inhibitor, partial curve, poor fit]	–
O=C(Cn1ccn2nc(-c3ccc(F)cc3)c(CO)c2c1=O)Nc1ccc(Cl)cc1F	inactive	–
O=C(O)C1(CCc2ccccc2)CCCN(c2ncnc3nc[nH]c23)C1 (centres undefined)	inconclusive: 8.91 µM [inhibitor, full curve, poor fit]	–
CN1CCOc2c(C(=O)NCc3cnn(C)c3)cc(-c3ccccc3)cc21	inactive	–
CSc1ccc(-c2nc(O)c3cnccn23)cc1	inconclusive: 44.7 µM [inhibitor, partial curve]	–
C[C@@H](CSc1ccc(Br)cc1)CN1CC[C@H](C(C)(C)C)CCC1=O	inconclusive: 44.7 µM [inhibitor, partial curve, poor fit]	–
Cc1[nH]c2ccc(C(=O)NC3(C)CCS(=O)(=O)C3)cc2c1C (centres undefined)	inconclusive: 141 µM [inhibitor, partial curve, poor fit]	–
CC(=O)NC(c1cc(Cl)c2cccnc2c1O)C1CC1 (centres undefined)	inconclusive: 44.7 µM [inhibitor, partial curve, poor fit]	–
COCCCNC(=O)C1CCN(c2nn3cc(-c4ccc(F)cc4)nc3s2)CC1	inactive	–
O=C(O)c1ccc(Nc2nc3ccccc3nc2NS(=O)(=O)c2cccs2)cc1	inconclusive: 31.6 µM [inhibitor, partial curve, poor fit]	–
COC(=O)c1ccc(C(=O)Oc2ccc3c(c2)CCC3)cc1	inactive	–
O=C(CC1CCCC1)Nc1cccc2ncccc12	inconclusive: 100 µM [inhibitor, single point]	–
CC(=O)N[C@@H]1CN(Cc2cccn2C)C[C@H]1CO	inactive	–
O=C(C1CCN(S(=O)(=O)Cc2c(F)cccc2Cl)CC1)N1CCCC1	–	inconclusive: -32.5% [inhibitor]
O=C(CC1CCCCC1)N1CCCC(c2nc(-c3ccc(S(=O)(=O)N4CCCC4)cc3)no2)C1 (centres undefined)	inconclusive: 79.4 µM [inhibitor, partial curve, poor fit]	–
O=C(/C=C/c1ccc(-c2ccccc2Cl)o1)c1ccc(F)cc1	active: 11.2 µM	–
Cc1ccc(NC(=O)CN2C(=O)NC(c3ccc(Cl)cc3)C3=C2COC3=O)cc1Cl (centres undefined)	inconclusive: 11.2 µM [inhibitor, partial curve]	–
O=C(Nc1ccccc1)c1cnc(N2CCN(Cc3cccc(C(F)(F)F)c3)C2=O)o1	inactive	–
COc1ccc(-c2nc(C3CC3)nc3c2CCN(Cc2ccccc2)CC3)cc1	inconclusive: 89.1 µM [inhibitor, single point]	–

One compound at a time, from the list above:
`CC(=O)NC(c1cc(Cl)c2cccnc2c1O)C1CC1` (centres undefined) as listed: Potency: inconclusive: 44.7 µM [inhibitor, partial curve, poor fit]
`O=C(Nc1ccccc1)c1cnc(N2CCN(Cc3cccc(C(F)(F)F)c3)C2=O)o1` as listed: Potency: inactive
`Cc1ccc(NC(=O)CN2C(=O)NC(c3ccc(Cl)cc3)C3=C2COC3=O)cc1Cl` (centres undefined) as listed: Potency: inconclusive: 11.2 µM [inhibitor, partial curve]
